From PMC12729082 come the findings set out here.

Chains of the proteins cited; added tags and fusions are not shown.
UniProt Q9Y297: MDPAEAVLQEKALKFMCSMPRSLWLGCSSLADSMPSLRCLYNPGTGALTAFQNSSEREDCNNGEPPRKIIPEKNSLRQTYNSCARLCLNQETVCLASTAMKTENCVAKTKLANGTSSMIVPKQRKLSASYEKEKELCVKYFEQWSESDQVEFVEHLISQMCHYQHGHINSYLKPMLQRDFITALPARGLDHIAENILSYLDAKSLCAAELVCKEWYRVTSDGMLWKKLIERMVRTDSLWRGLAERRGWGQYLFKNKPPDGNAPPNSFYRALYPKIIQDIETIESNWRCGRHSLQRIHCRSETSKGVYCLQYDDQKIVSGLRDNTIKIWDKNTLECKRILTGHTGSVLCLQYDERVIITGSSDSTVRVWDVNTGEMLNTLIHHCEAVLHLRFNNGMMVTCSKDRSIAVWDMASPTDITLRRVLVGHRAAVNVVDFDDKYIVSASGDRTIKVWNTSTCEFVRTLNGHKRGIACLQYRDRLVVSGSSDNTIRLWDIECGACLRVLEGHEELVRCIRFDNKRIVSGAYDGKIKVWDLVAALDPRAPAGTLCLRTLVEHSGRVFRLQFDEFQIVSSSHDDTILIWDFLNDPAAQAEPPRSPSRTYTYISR

Experiment [1] deals with Beta-Transducin Repeat Containing E3 Ubiquitin Protein Ligase (BTRC) (human (endogenous in T24 and UMUC3 bladder cancer cells)) (UniProt Q9Y297). In words: co-IP; endogenous proteins from BCa cell lysate (20 mM Tris pH 7.5, 150 mM NaCl, 1% Triton X-100), primary antibody with protein A/G agarose beads overnight at 4 °C, six washes, Western blot; for BTRC-SRSF7 also after HDAC7 knockdown (T24) or HDAC7 overexpression (UMUC3). A general note: In western blotting, separated proteins are transferred to a membrane and probed.

The target in experiment [2] is T1, Histone deacetylase HDAC7 (human (endogenous in T24 and UMUC3 bladder cancer cells)) (UniProt Q8WUI4).
T1 sequence: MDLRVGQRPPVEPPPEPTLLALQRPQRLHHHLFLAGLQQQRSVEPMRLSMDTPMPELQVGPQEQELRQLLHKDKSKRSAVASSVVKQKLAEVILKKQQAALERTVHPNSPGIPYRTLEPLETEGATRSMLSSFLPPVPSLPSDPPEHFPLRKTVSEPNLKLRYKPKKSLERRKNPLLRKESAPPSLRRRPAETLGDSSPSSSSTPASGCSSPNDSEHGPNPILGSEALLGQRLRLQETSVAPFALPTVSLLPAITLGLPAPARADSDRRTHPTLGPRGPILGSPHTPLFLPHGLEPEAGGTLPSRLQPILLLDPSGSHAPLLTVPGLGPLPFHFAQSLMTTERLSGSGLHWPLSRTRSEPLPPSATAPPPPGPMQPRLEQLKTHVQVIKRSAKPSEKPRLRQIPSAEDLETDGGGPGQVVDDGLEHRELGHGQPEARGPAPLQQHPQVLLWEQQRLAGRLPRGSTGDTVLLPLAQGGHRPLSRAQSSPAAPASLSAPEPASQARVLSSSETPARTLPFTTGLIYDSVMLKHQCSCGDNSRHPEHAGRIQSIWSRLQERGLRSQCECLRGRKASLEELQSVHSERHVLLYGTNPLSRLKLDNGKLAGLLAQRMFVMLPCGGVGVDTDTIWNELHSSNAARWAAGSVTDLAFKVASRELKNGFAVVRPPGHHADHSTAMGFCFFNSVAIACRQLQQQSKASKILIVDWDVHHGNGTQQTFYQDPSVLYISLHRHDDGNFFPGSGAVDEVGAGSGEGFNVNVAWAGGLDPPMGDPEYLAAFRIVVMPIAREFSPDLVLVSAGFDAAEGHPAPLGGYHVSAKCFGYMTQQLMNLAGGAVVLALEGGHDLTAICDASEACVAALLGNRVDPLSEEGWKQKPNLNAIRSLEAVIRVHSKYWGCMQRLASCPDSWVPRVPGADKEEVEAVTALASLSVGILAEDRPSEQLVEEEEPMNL
The experiment is described as above.

Experiment [3] has as its target Beta-Transducin Repeat Containing E3 Ubiquitin Protein Ligase (BTRC) (human (endogenous in T24 and UMUC3 bladder cancer cells)) (UniProt Q9Y297). As to the kind of experiment: co-IP; T24 cells transfected with SRSF7 wild-type or Lys24 mutant (Lys→Ala) plasmids; lysate, primary antibody with protein A/G agarose beads, Western blot.
In experiment [4] the target is T1, Histone deacetylase HDAC7 (human (endogenous in T24 and UMUC3 bladder cancer cells)). Described as above.

Changes are numbered by the printed parent chain. No constants are given. Whether binding was seen depends on the method and setting. In cells and extracts the contact can be indirect. Some entries that bind do so weakly or less than the wild type. For part of these data: Tags and fused reporters may be left off the sequences shown.

B1: Serine and arginine rich splicing factor 7 (SRSF7) (protein, UniProt Q16629 1-238)
chain: MSRYGRYGGETKVYVGNLGTGAGKGELERAFSYYGPLRTVWIARNPPGFAFVEFEDPRDAEDAVRGLDGKVICGSRVRVELSTGMPRRSRFDRPPARRPFDPNDRCYECGEKGHYAYDCHRYSRRRRSRSRSRSHSRSRGRRYSRSRSRSRGRRSRSASPRRSRSISLRRSRSASLRRSRSGSIKGSRYFQSPSRSRSRSRSISRPRSSRSKSRSPSPKRSRSPSGSPRRSASPERMD
In the case of B1, the binding result in experiment [1] and in experiment [2] was “binds” throughout.

B2: SRSF7 wild-type (plasmid, transfected) (protein, UniProt Q16629 1-238)
chain: B1 chain
In the case of B2, the binding result in experiment [3] and in experiment [4] was “binds” in each case.

B3: SRSF7 Lys24 mutant (Lys→Ala) (plasmid, transfected) (protein, UniProt Q16629 1-238)
chain: B1 chain with K24A
On to B3, for which the binding result in experiment [3] and in experiment [4] was “binds” throughout.
